Patent publication US8435549B2, “Halogen alkoxy spirocyclic tetramic and tetronic acid derivatives” (Bayer Cropscience AG, priority 2007, dated 2013)
Some of these results come from one statement about several compounds together.

Assays:
Type in all cases: in vivo
Lolium multiflorum [1] = assay: Herbicidal pre-emergence action; conditions: 320 g/ha of a.i., 3 weeks
Setaria viridis [2] = assay: Herbicidal pre-emergence action; conditions: 320 g/ha of a.i., 3 weeks
Echinocloa crus-galli = assay: Herbicidal post-emergence action; conditions: 80 g/ha, about 3 weeks
Lolium multiflorum [3] = assay: Herbicidal post-emergence action; conditions: 80 g/ha, about 3 weeks
Setaria viridis [4] = assay: Herbicidal post-emergence action; conditions: 80 g/ha, about 3 weeks

CCc1cc(C)cc(C)c1C1=C(O)C2(CCC(OCC(F)(F)F)CC2)NC1=O (single isomer, unassigned) [Example I-1-a-13]
≥ 80%: pre-emergence action (herbicidal activity in percent) (Lolium multiflorum [1]) | pre-emergence action (herbicidal activity in percent) (Setaria viridis [2]) | post-emergence action (herbicidal activity in percent) (Echinocloa crus-galli) | post-emergence action (herbicidal activity in percent) (Lolium multiflorum [3]) | post-emergence action (herbicidal activity in percent) (Setaria viridis [4])

CCOc1cc(Cl)cc(CC)c1C1=C(O)C2(CCC(OCC(F)(F)F)CC2)NC1=O (single isomer, unassigned) [Example I-1-a-14]
≥ 80%: pre-emergence action (herbicidal activity in percent) (Lolium multiflorum [1]) | pre-emergence action (herbicidal activity in percent) (Setaria viridis [2]) | post-emergence action (herbicidal activity in percent) (Echinocloa crus-galli) | post-emergence action (herbicidal activity in percent) (Lolium multiflorum [3]) | post-emergence action (herbicidal activity in percent) (Setaria viridis [4])

Cc1cc(Cl)cc(C)c1C1=C(O)[C@]2(CC[C@H](OCC(F)(F)F)CC2)NC1=O [Example I-1-a-1]
≥ 80%: pre-emergence action (herbicidal activity in percent) (Lolium multiflorum [1]) | pre-emergence action (herbicidal activity in percent) (Setaria viridis [2])

Cc1cc(Cl)cc(C)c1C1=C(OC(=O)C(C)C)[C@]2(CC[C@H](OCC(F)(F)F)CC2)NC1=O [Example I-1-b-1]
≥ 80%: pre-emergence action (herbicidal activity in percent) (Lolium multiflorum [1]) | pre-emergence action (herbicidal activity in percent) (Setaria viridis [2])

CCOC(=O)OC1=C(c2c(C)cc(Cl)cc2C)C(=O)N[C@]12CC[C@@H](OCC(F)(F)F)CC2 [Example I-1-c-1]
≥ 80%: pre-emergence action (herbicidal activity in percent) (Lolium multiflorum [1]) | pre-emergence action (herbicidal activity in percent) (Setaria viridis [2])
